Among the data in paper PMC5996148 are binding signal values, retold here.

Holding throughout (test): protein microarray (ProtoArray v5.0), streptavidin-Alexa Fluor 647
Common to all, as to settings: 3'-biotin; 20 mM Tris (pH 7.5), 5 mM MgCl2, 100 mM KCl, 0.1% Tween-20, A/T-rich and random oligonucleotide blockers; temperature not stated; high values mean tight binding

Assay [1] relates to UPF0484 protein FAM167A (human).
The target in assay [2] is UPF0544 protein C5orf45 [Source:UniProtKB/Swiss-Prot + Acc:Q6NTE8] (human).
For assay [3], the system named is UPF0545 protein C22orf39 (human).
Assay [4] concerns UPF0546 membrane protein C1orf91 (human).
For assay [5], the system named is UPF0627 protein ENSP00000358171 (human).
The test system of assay [6] is UPK3A (human).
The test system of assay [7] is UPK3B (human).
Assay [8] has as its system UPP1 (human).
Assay [9] has as its system UPP2 (human).
The test system of assay [10] is UROS (human).

This is one part of the list.

Turning to “GGGAGGCTGAGGCAGG [G4-1 biotinylated (PQS2)]”, the binding signal is -0.258 z-score in assay [1]; -0.296 z-score in assay [2]; -0.318 z-score in assay [3]; -0.348 z-score in assay [4]; -0.335 z-score in [5]; -0.323 z-score in assay [6]. In addition, the binding signal in assay [7] was -0.323 z-score; in [8], -0.25 z-score; in assay [9], -0.35 z-score; in [10], -0.327 z-score.
